Consider 4 molecules from paper doi:10.1101/694695 (bioRxiv, 2019).

Assay [1] deals with T1, E. coli MS115-1 CdnC (yeast two-hybrid fusion) (E. coli MS115-1) (UniProt D7Y2H2).
T1 sequence: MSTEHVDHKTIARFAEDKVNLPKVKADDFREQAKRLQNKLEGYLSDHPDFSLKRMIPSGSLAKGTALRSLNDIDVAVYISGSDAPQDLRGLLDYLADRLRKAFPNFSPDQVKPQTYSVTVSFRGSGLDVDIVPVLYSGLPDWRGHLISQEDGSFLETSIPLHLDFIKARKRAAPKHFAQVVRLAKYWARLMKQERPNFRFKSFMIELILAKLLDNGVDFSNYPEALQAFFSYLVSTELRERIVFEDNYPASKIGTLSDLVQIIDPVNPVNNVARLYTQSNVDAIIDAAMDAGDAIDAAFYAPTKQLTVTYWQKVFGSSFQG
Description: two-hybrid.

In assay [2] the target is E. coli MS115-1 NucC (yeast two-hybrid fusion) (E. coli MS115-1) (UniProt D7Y2H5). Description: two-hybrid.
Assay [3] has as its target P. aeruginosa ATCC27853 NucC (yeast two-hybrid fusion) (P. aeruginosa ATCC27853) (UniProt P0DTF8). The assay can be described thus: two-hybrid.
Assay [4] addresses T2, Ec CdnC:HORMA complex (yeast three-hybrid, both genes in pBridge) (E. coli MS115-1) (UniProt D7Y2H2+D7Y2H3).
T2 sequence 1: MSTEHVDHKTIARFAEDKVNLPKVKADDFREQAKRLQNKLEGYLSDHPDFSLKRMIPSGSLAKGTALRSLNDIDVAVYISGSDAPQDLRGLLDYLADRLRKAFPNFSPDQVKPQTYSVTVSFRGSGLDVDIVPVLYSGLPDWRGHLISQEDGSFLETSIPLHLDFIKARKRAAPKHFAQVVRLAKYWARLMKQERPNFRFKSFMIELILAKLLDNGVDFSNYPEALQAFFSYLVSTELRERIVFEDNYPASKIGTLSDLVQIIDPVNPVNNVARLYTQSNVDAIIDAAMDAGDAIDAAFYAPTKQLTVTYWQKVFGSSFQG
T2 sequence 2: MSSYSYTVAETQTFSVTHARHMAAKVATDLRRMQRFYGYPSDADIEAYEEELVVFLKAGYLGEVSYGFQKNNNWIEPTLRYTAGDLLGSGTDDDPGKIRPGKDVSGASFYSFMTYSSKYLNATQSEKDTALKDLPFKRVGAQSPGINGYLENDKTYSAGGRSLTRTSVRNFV
The assay can be described thus: yeast three-hybrid.

Results are given in words; binding and its absence hold for the method and conditions named. Some binding calls cover weakened binding; strength is not graded here. Tags and fused reporters may be left off the sequences shown.

B1: E. coli MS115-1 HORMA (yeast two-hybrid fusion) (protein, UniProt D7Y2H3 1-172)
chain: MSSYSYTVAETQTFSVTHARHMAAKVATDLRRMQRFYGYPSDADIEAYEEELVVFLKAGYLGEVSYGFQKNNNWIEPTLRYTAGDLLGSGTDDDPGKIRPGKDVSGASFYSFMTYSSKYLNATQSEKDTALKDLPFKRVGAQSPGINGYLENDKTYSAGGRSLTRTSVRNFV
In the case of B1, in assay [1], the binding result is “binds”.

B2: E. coli MS115-1 NucC (yeast two-hybrid fusion) (enzyme, UniProt D7Y2H5 1-241)
chain: MSDWSLSQLFASLHEDIQLRLGTARKAFQHPGAKGDASEGVWIEMLDTYLPKRYQAANAFVVDSLGNFSDQIDVVVFDRQYSPFIFKFNEQIIVPAESVYAVFEAKQSASADLVAYAQRKVASVRRLHRTSLPIPHAGGTYPAKPLIPILGGLLTFESDWSPALGMSFDKALNGDLSDGRLDMGCVASHGHFYFNNIDSKFNFEHGNKPATAFLFRLIAQLQFSGTVPMIDIDAYGKWLAN
For the molecule B2, the binding result in assay [2] is “binds”.

B3: P. aeruginosa ATCC27853 NucC (yeast two-hybrid fusion) (enzyme, UniProt P0DTF8 1-241)
chain: MSQWSLSQLLSSLHEDIQQRLSVVRKTFGHPGTKGDASENVWIDMLDTYLPKRYQAAKAHVVDSLGNFSQQIDVVVFDRQYSPFIFTYENETIIPAESVYAVFEAKQTADAGLVAYAQEKVASVRRLHRTSLPIPHAGGTYPAKPLIPILGGLLTFESEWSPALGPSMDKALNANLTEGRLDIGCVAAHGHFFYDQASGAYSYTNENKPATAFLFKLIAQLQFSGTVPMIDVEAYGQWLTK
For the molecule B3, the binding entry in assay [3] is given as “binds”.

B4: Ec Pch2^EQ (E159Q; yeast three-hybrid fusion in pGADT7) (enzyme, UniProt D7Y2H4 1-311)
chain: MNVKPSLDELFERRINFPDFEPQERLARLVGLDEHKDRLSKILGLLVNPYGIQEWAKKYHPDARAAVDTVLRRPPLVVLAGDVGSGKTELAETIGDAVARQEDIDITLYPLSLATRGQGRVGEMTQLVSAAFDYTIEAADKLKNTNGKARGAVLLLIDQADALAQSRENAQMHHEDRAGVNAFIRGIDRIANQKLPAAVLMCTNRLKALDPAVQRRAAEILTFSRPNDEQRHYLLHSKLTGLGLNSTAVEELVRLTGPRDPNSPGFTFSDITQRLIPSIILAAYPYNAVSVHSALQVVNKMTPTPAFIDRQ
B4: in assay [4], the binding result is “binds”.
